Measured values published in PubChem BioAssay AID248 (DTP/NCI, 2004).
The list is a part of this screen's results and no random one: it gathers tests that were run many times, whatever their T/C, doses with no T/C, and many T/C values between a quarter and a half above the control. Further doses and runs are listed elsewhere. T/C: endpoint of the treated group in % of that of the vehicle group. Some entries give survivors of the animals treated and no T/C: the source files T/C as zero there, which appears to mark a toxic dose or a test without result, not a measured value. Some doses without a T/C left all or most animals alive at the check, yet need not have been tolerated: survival well below the control is almost never listed, so the zero probably covers shortened survival too. Counts of survivors are from the toxicity check (mostly the fifth day) where no day follows; animals may have died later. Schedules are NCI's codes, taken here to give the interval after Q, in days (D) or hours (H), and the number of doses after X. Some molecules as drawn cover several salts, stereoisomers or complexes of the source; a dose is that of the sample tested. For survival time, this PubChem deposit counts one and a half times the control or more as active, and values a quarter to a half above the control carry no call in these data; other NCI protocols may use other cut-offs. Some T/C values are followed by the survivors on the day toxicity was checked, most often the fifth; where none is given, no animal had died by that day.

System: L1210 leukemia ip in BDF1 mice, survival T/C
Experiment: NCI In Vivo Anticancer Drug Screen. Data for tumor model L1210 Leukemia (intraperitoneal) in B6D2F1 (BDF1) mice
Conditions: T/C endpoint: mean survival time, higher T/C = longer survival
[1] = dose: 400.0 mg/kg/injection, schedule: Q04DX003 (ip), vehicle: Klucel (hydroxypropylcellulose) (HPC)
[2] = dose: 400.0 mg/kg/injection, schedule: Q04DX003 (ip), vehicle: saline with Tween-80
[3] = dose: 100.0 mg/kg/injection, schedule: Q01DX009 (ip), vehicle: saline
[4] = dose: 200.0 mg/kg/injection, schedule: Q01DX009 (ip), vehicle: saline
[5] = dose: 400.0 mg/kg/injection, schedule: Q01DX001 (ip), vehicle: saline
[6] = dose: 100.0 mg/kg/injection, schedule: Q01DX001 (ip), vehicle: saline
[7] = dose: 100.0 mg/kg/injection, schedule: Q04DX003 (ip), vehicle: saline
[8] = dose: 200.0 mg/kg/injection, schedule: Q01DX001 (ip), vehicle: saline
[9] = dose: 200.0 mg/kg/injection, schedule: Q04DX003 (ip), vehicle: saline
[10] = dose: 400.0 mg/kg/injection, schedule: Q04DX003 (ip), vehicle: saline

## CCSc1ncnc2c1ncn2C1OC(CO)C(O)C1O (stereo unspecified)
dose: 300.0 mg/kg/injection, schedule: Q04DX003 (ip), vehicle: saline with Tween-80
  T/C: 129 % of control

## O=C(COc1cc(Cl)c(Cl)cc1Cl)NO
[1]
  survivor count: 2 of 6

## c1ccc2c3c(cc(C4CCCC4)c2c1)CCCC3
dose: 400.0 mg/kg/injection, schedule: Q01DX001 (ip), vehicle: carboxymethylcellulose (CMC)
  survivor count: 6 of 6

## Cc1ncc(CO)c(/C=N/OCc2ccc(OCc3ccccc3)cc2)c1O
[2]
  survivor count: 3 of 6

## O=P(NCCCl)(Nc1ccccc1)Nc1ccccc1
dose: 200.0 mg/kg/injection, schedule: Q04DX003 (ip), vehicle: Klucel (hydroxypropylcellulose) (HPC)
  survivor count: 6 of 6
[1]
  survivor count: 6 of 6

## Sc1ccc(Cl)cc1.[Pb]
dose: 100.0 mg/kg/injection, schedule: Q01DX009 (ip), vehicle: gum acacia
  survivor count: 3 of 3

## Cc1ccc(N=Nc2ccc(N(C)C)cc2)c2cccnc12
[2]
  survivor count: 6 of 6

## C1OC1CN1CCN(CC2CO2)CC1 (stereo unspecified)
dose: 2.7 mg/kg/injection, schedule: Q01DX009 (ip), vehicle: saline
  T/C: 135 % of control
dose: 4.0 mg/kg/injection, schedule: Q03HX024 (ip), vehicle: saline
  T/C: 137 % of control
dose: 4.1 mg/kg/injection, schedule: Q01DX009 (ip), vehicle: saline
  T/C: 129 % of control
dose: 6.25 mg/kg/injection, schedule: Q01DX009 (ip), vehicle: saline
  T/C: 131 % of control
dose: 7.0 mg/kg/injection, schedule: Q01DX009 (ip), vehicle: saline
  T/C: 136 % of control
dose: 8.0 mg/kg/injection, schedule: Q01DX009 (ip), vehicle: saline
  T/C: 128 % of control
dose: 8.0 mg/kg/injection, schedule: Q03HX024 (ip), vehicle: saline
  survivor count: 8 of 10
dose: 12.5 mg/kg/injection, schedule: Q01DX009 (ip), vehicle: saline
  T/C: 148 % of control
dose: 16.0 mg/kg/injection, schedule: Q01DX001 (ip), vehicle: saline
  T/C: 126 % of control
dose: 16.0 mg/kg/injection, schedule: Q01DX009 (ip), vehicle: saline
  T/C: 144 % of control
dose: 16.0 mg/kg/injection, schedule: Q01DX009 (oral), vehicle: saline
  T/C: 127 % of control
dose: 16.0 mg/kg/injection, schedule: Q03HX008 (ip), vehicle: saline
  survivor count: 1 of 10
dose: 16.0 mg/kg/injection, schedule: Q03HX016 (ip), vehicle: saline
  survivor count: 0 of 10
dose: 16.0 mg/kg/injection, schedule: Q03HX024 (ip), vehicle: saline
  survivor count: 1 of 10
dose: 16.0 mg/kg/injection, schedule: Q04DX003 (ip), vehicle: saline
  T/C: 133 % of control
dose: 16.0 mg/kg/injection, schedule: Q08DX002 (ip), vehicle: saline
  T/C: 127 % of control
dose: 32.0 mg/kg/injection, schedule: Q01DX001 (ip), vehicle: saline
  T/C: 131 % of control
dose: 32.0 mg/kg/injection, schedule: Q01DX009 (sc), vehicle: saline
  T/C: 130 % of control
dose: 32.0 mg/kg/injection, schedule: Q03HX008 (ip), vehicle: saline
  survivor count: 1 of 10
dose: 32.0 mg/kg/injection, schedule: Q03HX024 (ip), vehicle: saline
  survivor count: 0 of 10
dose: 32.0 mg/kg/injection, schedule: Q08DX002 (ip), vehicle: saline
  T/C: 146 % of control
dose: 37.5 mg/kg/injection, schedule: Q01DX009 (ip), vehicle: saline
  T/C: 140 % of control
dose: 50.0 mg/kg/injection, schedule: Q01DX009 (ip), vehicle: saline
  survivor count: 6 of 6
dose: 64.0 mg/kg/injection, schedule: Q01DX001 (ip), vehicle: saline
  survivor count: 4 of 10
dose: 64.0 mg/kg/injection, schedule: Q01DX009 (ip), vehicle: saline
  survivor count: 3 of 10
dose: 64.0 mg/kg/injection, schedule: Q04DX003 (ip), vehicle: saline
  survivor count: 8 of 10
dose: 64.0 mg/kg/injection, schedule: Q08DX002 (ip), vehicle: saline
  survivor count: 4 of 10
[3]
  survivor count: 4 of 6
dose: 128.0 mg/kg/injection, schedule: Q01DX001 (ip), vehicle: saline
  survivor count: 2 of 10
dose: 128.0 mg/kg/injection, schedule: Q01DX001 (oral), vehicle: saline
  T/C: 139 % of control [9 of 10 alive]
dose: 128.0 mg/kg/injection, schedule: Q01DX009 (ip), vehicle: saline
  survivor count: 1 of 10
dose: 128.0 mg/kg/injection, schedule: Q01DX009 (oral), vehicle: saline
  survivor count: 9 of 10
dose: 128.0 mg/kg/injection, schedule: Q01DX009 (sc), vehicle: saline
  survivor count: 9 of 10
dose: 128.0 mg/kg/injection, schedule: Q04DX003 (ip), vehicle: saline
  survivor count: 3 of 10
dose: 128.0 mg/kg/injection, schedule: Q08DX002 (ip), vehicle: saline
  survivor count: 0 of 10
[4]
  survivor count: 2 of 6
dose: 256.0 mg/kg/injection, schedule: Q01DX001 (ip), vehicle: saline
  survivor count: 2 of 10
dose: 256.0 mg/kg/injection, schedule: Q01DX001 (oral), vehicle: saline
  survivor count: 0 of 10
dose: 256.0 mg/kg/injection, schedule: Q04DX003 (ip), vehicle: saline
  survivor count: 1 of 10
dose: 270.0 mg/kg/injection, schedule: Q01DX001 (ip), vehicle: saline
  survivor count: 2 of 6
[5]
  survivor count: 4 of 6
dose: 800.0 mg/kg/injection, schedule: Q01DX001 (ip), vehicle: saline
  survivor count: 0 of 6

## CC1(C)N=C(N)N=C(N)N1c1cc(Cl)ccc1Cl
[6]
  survivor count: 2 of 6
[3]
  survivor count: 1 of 6
[7]
  survivor count: 5 of 6
[8]
  survivor count: 0 of 6
[9]
  survivor count: 0 of 6
[5]
  survivor count: 0 of 6
[10]
  survivor count: 0 of 6

## O=C(O)C(Br)C(Br)C(=O)O.[Ag] (stereo unspecified)
dose: 37.5 mg/kg/injection, schedule: Q01DX001 (ip), vehicle: other
  survivor count: 1 of 6
dose: 75.0 mg/kg/injection, schedule: Q01DX001 (ip), vehicle: other
  survivor count: 0 of 6
dose: 150.0 mg/kg/injection, schedule: Q01DX001 (ip), vehicle: other
  survivor count: 0 of 6
dose: 300.0 mg/kg/injection, schedule: Q01DX001 (ip), vehicle: other
  survivor count: 6 of 6

## O=c1cc2oc3c(O)c(O)ccc3c3c4ccccc4c(=O)c(c1)c23
[3]
  survivor count: 3 of 6
[4]
  survivor count: 0 of 6
[10]
  survivor count: 1 of 6

## O=C(OC(=O)C1CC1)C1CC1
[3]
  survivor count: 2 of 6
[4]
  survivor count: 0 of 6
[9]
  survivor count: 2 of 6
[10]
  survivor count: 0 of 6

## O=C(C#Cc1ccccc1)/C=C/c1ccccc1
[1]
  survivor count: 1 of 6

## NC(=O)OCC(CO)(c1ccccc1)c1ccccc1
[6]
  survivor count: 0 of 4
[8]
  survivor count: 0 of 4
[5]
  survivor count: 0 of 4

## CNCCOC(c1ccccc1)c1ccccc1C (stereo unspecified)
[6]
  survivor count: 3 of 6
[3]
  survivor count: 0 of 6
[7]
  survivor count: 2 of 4
[8]
  survivor count: 0 of 6
[4]
  survivor count: 0 of 6
[9]
  survivor count: 0 of 4
[5]
  survivor count: 0 of 6
dose: 400.0 mg/kg/injection, schedule: Q01DX009 (ip), vehicle: saline
  survivor count: 0 of 6
[10]
  survivor count: 0 of 4

## O=C1CCc2ccsc21
dose: 400.0 mg/kg/injection, schedule: Q04DX002 (ip), vehicle: saline with Tween-80
  survivor count: 3 of 3

## O=C1C2=C(C(=O)c3ccccc31)C(=O)C1CC=CCC1C2=O (stereo unspecified)
dose: 30.0 mg/kg/injection, schedule: Q01DX009 (ip), vehicle: saline with Tween-80
  survivor count: 6 of 6
dose: 60.0 mg/kg/injection, schedule: Q01DX009 (ip), vehicle: saline with Tween-80
  survivor count: 6 of 6
dose: 90.0 mg/kg/injection, schedule: Q01DX009 (ip), vehicle: saline with Tween-80
  survivor count: 6 of 6
dose: 180.0 mg/kg/injection, schedule: Q01DX009 (ip), vehicle: saline with Tween-80
  survivor count: 6 of 6
